Experimental data reported in the supplement of paper PMC10849652.
The list shows a part of the results.

Protein sequences, listed by entry. Tags and fused reporters are not part of them. Lines headed by an entry give the natural chain unless they say otherwise; changes in a name come on top.
UniProt Q9NVA4: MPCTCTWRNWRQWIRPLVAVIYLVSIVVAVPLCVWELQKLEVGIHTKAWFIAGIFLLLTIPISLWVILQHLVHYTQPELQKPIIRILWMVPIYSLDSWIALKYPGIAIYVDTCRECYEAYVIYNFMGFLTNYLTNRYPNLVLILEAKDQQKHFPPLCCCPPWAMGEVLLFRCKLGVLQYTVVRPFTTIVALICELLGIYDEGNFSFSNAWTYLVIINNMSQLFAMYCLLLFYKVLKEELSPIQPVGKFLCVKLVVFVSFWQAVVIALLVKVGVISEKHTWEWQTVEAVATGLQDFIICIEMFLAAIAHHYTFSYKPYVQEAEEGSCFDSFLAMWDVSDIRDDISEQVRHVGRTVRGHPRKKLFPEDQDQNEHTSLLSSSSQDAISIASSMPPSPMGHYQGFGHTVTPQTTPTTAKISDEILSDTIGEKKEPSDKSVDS
UniProt P62328: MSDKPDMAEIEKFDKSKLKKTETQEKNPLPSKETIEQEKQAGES
UniProt Q96AN5: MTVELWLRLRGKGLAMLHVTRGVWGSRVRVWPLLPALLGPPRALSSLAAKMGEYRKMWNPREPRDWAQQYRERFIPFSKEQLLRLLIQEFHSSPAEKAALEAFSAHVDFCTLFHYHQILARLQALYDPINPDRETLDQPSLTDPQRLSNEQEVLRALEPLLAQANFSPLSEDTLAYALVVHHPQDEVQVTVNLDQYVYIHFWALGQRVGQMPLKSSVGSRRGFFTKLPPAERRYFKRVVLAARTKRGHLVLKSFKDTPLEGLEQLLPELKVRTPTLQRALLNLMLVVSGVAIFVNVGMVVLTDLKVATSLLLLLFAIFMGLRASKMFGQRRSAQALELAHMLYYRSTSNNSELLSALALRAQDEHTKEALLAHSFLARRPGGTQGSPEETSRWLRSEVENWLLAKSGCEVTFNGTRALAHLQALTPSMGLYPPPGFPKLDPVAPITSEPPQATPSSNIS
UniProt Q9BSA9: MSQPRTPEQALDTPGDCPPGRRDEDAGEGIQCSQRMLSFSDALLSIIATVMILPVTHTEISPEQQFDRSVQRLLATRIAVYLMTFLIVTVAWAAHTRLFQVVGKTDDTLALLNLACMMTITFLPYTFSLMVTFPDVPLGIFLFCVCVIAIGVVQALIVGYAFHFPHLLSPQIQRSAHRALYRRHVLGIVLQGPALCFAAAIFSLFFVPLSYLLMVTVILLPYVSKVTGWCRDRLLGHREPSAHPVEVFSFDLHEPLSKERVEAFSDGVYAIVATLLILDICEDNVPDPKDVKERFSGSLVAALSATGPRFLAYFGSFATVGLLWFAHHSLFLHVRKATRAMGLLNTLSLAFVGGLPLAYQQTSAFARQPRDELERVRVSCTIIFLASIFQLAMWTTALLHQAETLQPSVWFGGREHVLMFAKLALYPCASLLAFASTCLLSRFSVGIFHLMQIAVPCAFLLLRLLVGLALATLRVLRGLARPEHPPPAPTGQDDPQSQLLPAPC
UniProt Q9BSE2: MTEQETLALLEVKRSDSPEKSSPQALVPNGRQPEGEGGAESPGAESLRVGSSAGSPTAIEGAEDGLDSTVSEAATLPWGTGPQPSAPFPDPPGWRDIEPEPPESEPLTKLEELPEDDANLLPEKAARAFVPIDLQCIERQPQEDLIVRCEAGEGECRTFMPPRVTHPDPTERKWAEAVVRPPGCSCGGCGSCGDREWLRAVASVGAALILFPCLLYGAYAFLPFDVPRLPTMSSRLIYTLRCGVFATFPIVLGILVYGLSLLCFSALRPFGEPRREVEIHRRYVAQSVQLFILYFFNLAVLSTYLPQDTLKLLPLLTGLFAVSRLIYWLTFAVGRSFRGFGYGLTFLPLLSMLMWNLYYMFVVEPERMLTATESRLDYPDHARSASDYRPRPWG
UniProt O75204: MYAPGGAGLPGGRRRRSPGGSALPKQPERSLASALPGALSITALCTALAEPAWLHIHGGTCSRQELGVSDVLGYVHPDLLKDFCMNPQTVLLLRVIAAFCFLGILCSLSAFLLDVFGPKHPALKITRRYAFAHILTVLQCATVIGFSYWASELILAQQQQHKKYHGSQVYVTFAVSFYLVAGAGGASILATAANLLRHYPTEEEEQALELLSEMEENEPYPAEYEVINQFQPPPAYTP
UniProt Q9NX78: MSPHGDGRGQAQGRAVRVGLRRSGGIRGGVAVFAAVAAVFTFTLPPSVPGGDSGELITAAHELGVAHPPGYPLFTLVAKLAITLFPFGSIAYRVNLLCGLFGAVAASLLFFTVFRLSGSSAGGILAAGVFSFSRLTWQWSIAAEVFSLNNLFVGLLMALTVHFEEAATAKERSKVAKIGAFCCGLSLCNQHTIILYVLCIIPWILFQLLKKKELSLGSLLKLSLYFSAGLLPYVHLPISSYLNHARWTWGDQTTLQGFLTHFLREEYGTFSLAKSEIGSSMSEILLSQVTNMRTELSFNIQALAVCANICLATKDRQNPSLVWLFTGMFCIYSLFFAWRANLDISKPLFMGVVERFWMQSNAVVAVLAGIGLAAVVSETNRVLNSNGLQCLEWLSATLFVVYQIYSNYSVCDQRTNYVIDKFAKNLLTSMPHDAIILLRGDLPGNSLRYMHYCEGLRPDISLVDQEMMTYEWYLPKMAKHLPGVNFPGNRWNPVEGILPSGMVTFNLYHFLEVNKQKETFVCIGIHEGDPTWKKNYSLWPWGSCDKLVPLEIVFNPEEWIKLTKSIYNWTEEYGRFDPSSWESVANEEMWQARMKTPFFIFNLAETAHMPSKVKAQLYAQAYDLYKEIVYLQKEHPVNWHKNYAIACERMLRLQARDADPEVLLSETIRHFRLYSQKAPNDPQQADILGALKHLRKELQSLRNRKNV
UniProt O95807: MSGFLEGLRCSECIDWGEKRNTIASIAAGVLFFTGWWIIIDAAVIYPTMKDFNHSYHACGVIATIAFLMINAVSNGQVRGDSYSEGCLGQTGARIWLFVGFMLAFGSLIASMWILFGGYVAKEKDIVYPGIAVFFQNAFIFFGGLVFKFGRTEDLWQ
UniProt O75069: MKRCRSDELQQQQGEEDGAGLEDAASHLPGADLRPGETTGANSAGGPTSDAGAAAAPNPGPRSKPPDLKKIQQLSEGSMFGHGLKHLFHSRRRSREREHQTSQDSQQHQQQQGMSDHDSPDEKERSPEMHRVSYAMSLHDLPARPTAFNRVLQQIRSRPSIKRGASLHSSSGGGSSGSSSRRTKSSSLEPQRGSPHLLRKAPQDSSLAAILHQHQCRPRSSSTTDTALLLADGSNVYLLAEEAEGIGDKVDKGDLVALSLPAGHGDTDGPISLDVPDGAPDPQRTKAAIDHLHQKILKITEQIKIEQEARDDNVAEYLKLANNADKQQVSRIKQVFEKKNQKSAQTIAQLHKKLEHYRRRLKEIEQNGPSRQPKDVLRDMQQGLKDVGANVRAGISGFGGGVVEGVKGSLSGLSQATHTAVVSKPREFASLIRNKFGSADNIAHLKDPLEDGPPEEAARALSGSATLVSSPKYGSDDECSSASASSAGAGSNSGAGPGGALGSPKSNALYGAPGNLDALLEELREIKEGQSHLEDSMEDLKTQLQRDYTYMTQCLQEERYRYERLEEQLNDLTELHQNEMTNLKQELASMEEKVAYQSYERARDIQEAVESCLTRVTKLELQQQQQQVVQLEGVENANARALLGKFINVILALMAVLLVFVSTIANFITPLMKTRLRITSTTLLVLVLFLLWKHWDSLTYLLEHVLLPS
UniProt Q5T292: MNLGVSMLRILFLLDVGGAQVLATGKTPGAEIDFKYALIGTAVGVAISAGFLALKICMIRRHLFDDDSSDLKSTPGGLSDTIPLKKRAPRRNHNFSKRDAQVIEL
UniProt Q9HCN3: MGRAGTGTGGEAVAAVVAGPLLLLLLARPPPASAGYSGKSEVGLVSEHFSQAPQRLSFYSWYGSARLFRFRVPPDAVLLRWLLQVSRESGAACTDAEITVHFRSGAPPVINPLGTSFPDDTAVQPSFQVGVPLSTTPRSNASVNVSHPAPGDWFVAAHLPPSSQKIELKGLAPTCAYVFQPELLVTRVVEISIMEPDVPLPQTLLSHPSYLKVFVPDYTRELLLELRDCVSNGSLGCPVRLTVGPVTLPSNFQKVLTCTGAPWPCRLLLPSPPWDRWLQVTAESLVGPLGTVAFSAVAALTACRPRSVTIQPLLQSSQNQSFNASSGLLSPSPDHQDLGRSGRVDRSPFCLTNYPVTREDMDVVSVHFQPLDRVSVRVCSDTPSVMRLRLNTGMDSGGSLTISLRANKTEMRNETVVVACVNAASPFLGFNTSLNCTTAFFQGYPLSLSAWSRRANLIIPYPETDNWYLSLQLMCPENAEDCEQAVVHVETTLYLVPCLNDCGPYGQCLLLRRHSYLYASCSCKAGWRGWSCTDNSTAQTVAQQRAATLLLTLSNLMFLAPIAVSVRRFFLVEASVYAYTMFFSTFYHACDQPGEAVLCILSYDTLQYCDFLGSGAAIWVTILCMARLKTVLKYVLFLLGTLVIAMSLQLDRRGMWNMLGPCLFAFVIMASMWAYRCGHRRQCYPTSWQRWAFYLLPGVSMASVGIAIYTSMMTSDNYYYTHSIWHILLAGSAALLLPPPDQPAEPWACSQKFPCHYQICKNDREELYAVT
UniProt Q03169: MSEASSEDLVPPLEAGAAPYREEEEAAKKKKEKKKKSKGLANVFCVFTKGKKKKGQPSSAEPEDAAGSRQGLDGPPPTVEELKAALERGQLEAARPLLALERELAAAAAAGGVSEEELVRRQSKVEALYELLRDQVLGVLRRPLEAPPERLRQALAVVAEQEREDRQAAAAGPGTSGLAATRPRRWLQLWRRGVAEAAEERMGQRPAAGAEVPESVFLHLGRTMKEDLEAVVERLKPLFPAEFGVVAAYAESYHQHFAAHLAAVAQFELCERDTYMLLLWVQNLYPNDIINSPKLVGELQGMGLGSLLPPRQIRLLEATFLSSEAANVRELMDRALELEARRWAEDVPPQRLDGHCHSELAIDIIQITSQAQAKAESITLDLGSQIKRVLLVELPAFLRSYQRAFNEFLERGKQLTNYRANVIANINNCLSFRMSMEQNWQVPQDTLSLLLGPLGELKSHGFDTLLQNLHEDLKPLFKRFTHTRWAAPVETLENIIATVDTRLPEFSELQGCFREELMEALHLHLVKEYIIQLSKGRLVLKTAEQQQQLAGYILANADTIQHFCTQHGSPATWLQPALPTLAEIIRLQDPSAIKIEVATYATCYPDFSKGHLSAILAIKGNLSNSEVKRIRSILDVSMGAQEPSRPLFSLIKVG
UniProt P19438, whole entry, looked up: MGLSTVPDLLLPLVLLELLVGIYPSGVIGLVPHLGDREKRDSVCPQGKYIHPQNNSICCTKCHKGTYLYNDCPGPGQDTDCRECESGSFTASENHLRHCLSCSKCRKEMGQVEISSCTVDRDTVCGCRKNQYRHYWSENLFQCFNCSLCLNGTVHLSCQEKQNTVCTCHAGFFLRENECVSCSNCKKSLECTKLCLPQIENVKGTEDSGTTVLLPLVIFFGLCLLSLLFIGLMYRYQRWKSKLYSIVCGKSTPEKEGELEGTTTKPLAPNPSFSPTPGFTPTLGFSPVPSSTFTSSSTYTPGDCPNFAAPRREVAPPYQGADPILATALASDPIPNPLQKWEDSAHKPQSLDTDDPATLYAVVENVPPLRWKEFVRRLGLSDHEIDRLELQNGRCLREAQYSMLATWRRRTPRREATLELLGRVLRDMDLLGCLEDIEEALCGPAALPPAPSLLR
UniProt Q96B96: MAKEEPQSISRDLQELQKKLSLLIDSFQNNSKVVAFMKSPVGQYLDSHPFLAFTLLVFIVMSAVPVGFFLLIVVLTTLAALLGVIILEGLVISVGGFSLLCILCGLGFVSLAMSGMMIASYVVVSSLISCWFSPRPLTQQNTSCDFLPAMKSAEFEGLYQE
UniProt Q5SNT2: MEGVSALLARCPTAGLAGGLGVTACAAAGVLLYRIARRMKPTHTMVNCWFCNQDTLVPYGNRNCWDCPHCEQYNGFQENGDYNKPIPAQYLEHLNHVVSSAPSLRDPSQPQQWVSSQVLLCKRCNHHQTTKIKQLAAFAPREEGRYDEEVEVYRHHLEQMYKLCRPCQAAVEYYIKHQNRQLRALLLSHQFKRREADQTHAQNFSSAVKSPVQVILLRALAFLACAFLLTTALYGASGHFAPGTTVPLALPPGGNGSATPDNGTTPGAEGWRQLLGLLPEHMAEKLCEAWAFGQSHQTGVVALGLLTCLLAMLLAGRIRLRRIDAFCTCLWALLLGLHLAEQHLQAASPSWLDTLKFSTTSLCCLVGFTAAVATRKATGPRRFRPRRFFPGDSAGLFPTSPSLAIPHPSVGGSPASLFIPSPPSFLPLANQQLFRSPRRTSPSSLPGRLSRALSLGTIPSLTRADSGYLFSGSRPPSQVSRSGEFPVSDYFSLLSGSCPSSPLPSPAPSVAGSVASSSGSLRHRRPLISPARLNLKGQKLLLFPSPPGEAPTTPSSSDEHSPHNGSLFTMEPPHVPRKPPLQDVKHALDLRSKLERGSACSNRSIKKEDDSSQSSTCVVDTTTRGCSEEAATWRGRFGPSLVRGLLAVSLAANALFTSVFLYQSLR

Each target was assayed with C1=CC=C2C(=C1)C3=NNC4=CC=CC(=C43)C2=O (assay: log2 fold change, soluble protein after heating vs DMSO (PISA); higher = thermal stabilisation; K562 cells, 10 uM, 30 min; active = over 0.2 and 3.5 SD of the protein, either way, in both replicates (recomputed)).
Summary of the method: (§1)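 Aliquots of K562 cells (2×10^6 cells/mL) treated with 10 μM compound for 30 min were heated for 3 min over 48°C-58°C. After pooling and extraction in PBS with 0.5% NP-40 at 4°C, soluble protein from a 21,000xg, 90 min spin was quantified by TMTpro 16plex LC-MS/MS with channel sums equalised. Thermal stability is expressed against control samples, from duplicates, as a log2 fold change.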

log2 fold change, inactive:
TMEM184C (UniProt Q9NVA4) -0.009
TMEM59 (UniProt Q9BXS4) -0.01
TMSB4X (UniProt P62328) 0.572
TMEM143 (UniProt Q96AN5) -0.03
TMEM175 (UniProt Q9BSA9) 0.508
TMEM79 (UniProt Q9BSE2) -0.15
TMEM131 (UniProt Q92545) -0.05
TLE5 isoform 2 (UniProt Q08117) 0.089
TMEM127 (UniProt O75204) 0.034
TMEM94 isoform 2 (UniProt Q12767) -0.131
TMEM260 (UniProt Q9NX78) -0.091
TMCC1 (UniProt O94876) 0.197
TMEM50A (UniProt O95807) -0.145
TMCC2 (UniProt O75069) 0.07
TMEM273 isoform 2 (UniProt Q5T292) -0.017

These targets were tested with C1CCN(C1)C(=O)NC2=CC=CC(=C2)NC3=NC=C(C(=N3)NCCC4=CN=CN4)Br in the same assay as above.
Summary of the method: as §1

log2 fold change, inactive:
TMEM8A (UniProt Q9HCN3) -0.014
TNFAIP2 (UniProt Q03169) 0.024
TMEM184C (UniProt Q9NVA4) -0.092
TMEM59 (UniProt Q9BXS4) -0.008
TMEM237 isoform 3 (UniProt Q96Q45) -0.073
TMEM143 (UniProt Q96AN5) 0.024
TMEM184B (UniProt Q9Y519) -0.134
TMEM175 (UniProt Q9BSA9) 0.003
TMEM79 (UniProt Q9BSE2) -0.001
TMEM131 (UniProt Q92545) 0.125
TNFRSF1A (UniProt P19438) 0.178
TMEM35B (UniProt Q8NCS4) -0.138
TMEM129 0.078
TMEM159 isoform 2 (UniProt Q96B96) -0.193
TMEM127 (UniProt O75204) 0.081
TMEM260 (UniProt Q9NX78) -0.031
TMEM205 (UniProt Q6UW68) 0.002
TLNRD1 (UniProt Q9H1K6) -0.1
TMEM167B (UniProt Q9NRX6) -0.058
TMEM201 (UniProt Q5SNT2) -0.024
TMEM50A (UniProt O95807) 0.078
TLR4 (UniProt O00206) -0.066
TMEM273 isoform 2 (UniProt Q5T292) 0.169
